Reference: PubChem BioAssay AID1259405 (NCATS, 2018)
Purpose: 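Knock-downs that lift recombinant protein yield in hamster ovary cells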 (primary screen). Cell system: Chinese hamster CHO-K1 ovary cells with stable secreted eGFP expression. Reagent: single siRNA against mouse genes, 0.8 pmol siRNA per well (2 µl of 400 nM stock). Timing: 3 days. Read-out: 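Percent of the per-plate non-targeting control median for intracellular GFP per well by laser scanning cytometry and for cell viability by ATP luminescence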. Direction: GFP, % of control: higher = more GFP per well, higher productivity; viability (ATP), % of control: higher = more viable cells (more ATP). Rule for the call: 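a knock-down is called active if GFP reaches 120% or more of non-targeting control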.
The deposit covers about 50,000 reagents; shown is a part drawn at random. Over the whole deposit, about 4,000 (8%) got an active call. 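Mouse siRNA library applied to hamster cells; one well for each siRNA.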 A number with no mark means an inactive call. The numbers tell different reagents against one gene apart.

| Gene | reagent | GFP, % of control | viability (ATP), % of control |
| --- | --- | --- | --- |
| Ldhd | 1 | 116 | 83.6 |
| Ldhd | 2 | 97.3 | 49.6 |
| Ldhd | 3 | 85.9 | 74.3 |
| Bst2 | 1 | 70.1 | 120 |
| Bst2 | 2 | 82.3 | 84.6 |
| Bst2 | 3 | 163 (active) | 148 |
| Chkb | 1 | 89.3 | 53.7 |
| Pdcd5 | 1 | 57.3 | 53 |
| Pdcd5 | 2 | 38.4 | 45.4 |
| Pdcd5 | 3 | 41.4 | 65.5 |
| Zhx3 | 1 | 64.1 | 57.4 |
| Zhx3 | 2 | 55.6 | 62.1 |
| Or6b3 | 1 | 66.7 | 43.9 |
| Or6b3 | 2 | 105 | 78.7 |
| Or6b3 | 3 | 115 | 74.8 |
| Nelfb | 1 | 102 | 61.9 |
| Nelfb | 2 | 71.8 | 49.8 |
| Nelfb | 3 | 77.5 | 105 |
| Erich3 | 1 | 54.4 | 48.6 |
| Erich3 | 2 | 68.1 | 83.1 |
| Erich3 | 3 | 81.7 | 88.8 |
| Kif27 | 1 | 101 | 119 |
| Kif27 | 2 | 73.5 | 102 |
| Sycp2 | 1 | 109 | 85.2 |
| Sycp2 | 2 | 57.9 | 64.5 |
| Sycp2 | 3 | 118 | 85 |
| Trim29 | 1 | 81.9 | 83.8 |
| Trim29 | 2 | 86.8 | 68.4 |
| Trim29 | 3 | 59.1 | 68.5 |
| Crip2 | 1 | 59.7 | 57 |
| Crip2 | 2 | 95.2 | 105 |
| Olig2 | 1 | 101 | 121 |
| Olig2 | 2 | 109 | 105 |
| Olig2 | 3 | 77.4 | 108 |
| Cyth3 | 1 | 44.6 | 56.5 |
| Cyth3 | 2 | 68.8 | 76.2 |
| Cyth3 | 3 | 84.1 | 74.1 |
| Col17a1 | 1 | 109 | 117 |
| Col17a1 | 2 | 67.4 | 74.2 |
| Zfand1 | 1 | 110 | 86.1 |
| Zfand1 | 2 | 59.2 | 53.4 |
| Zfand1 | 3 | 75.1 | 66.3 |
| 1700067K01Rik | 1 | 75.7 | 23.8 |
| 1700067K01Rik | 2 | 95.4 | 83.1 |
| 1700067K01Rik | 3 | 76.8 | 76.9 |
| Wac | 1 | 62 | 70.5 |
| Wac | 2 | 124 (active) | 49.9 |
| Wac | 3 | 78.3 | 99.2 |
| Prorsd1 | 1 | 41.6 | 74.6 |
| Prorsd1 | 2 | 82.6 | 47.4 |
| Prorsd1 | 3 | 52.1 | 83.3 |
| Drg1 | 1 | 133 (active) | 124 |
| Drg1 | 2 | 121 (active) | 120 |
| Drg1 | 3 | 54.7 | 70.3 |
| Miga2 | 1 | 76.7 | 55 |
| Miga2 | 2 | 67.1 | 79 |
| Miga2 | 3 | 64.8 | 76.8 |
| Pnpo | 1 | 73.6 | 51.2 |
| Pnpo | 2 | 85.7 | 58.1 |
| Pnpo | 3 | 41.6 | 78.2 |
| L3mbtl4 | 1 | 159 (active) | 121 |
| L3mbtl4 | 2 | 103 | 72.6 |
| L3mbtl4 | 3 | 71.5 | 56 |
| Dmgdh | 1 | 70.5 | 77.9 |
| Dmgdh | 2 | 83.9 | 75.8 |
| Dmgdh | 3 | 77.7 | 86.6 |
| Csnk1g3 | 1 | 120 (active) | 87.4 |
| Csnk1g3 | 2 | 135 (active) | 96.5 |
| Csnk1g3 | 3 | 69.6 | 49 |
| Csnk1g3 | 4 | 58.1 | 84.1 |
| Csnk1g3 | 5 | 72.1 | 87.9 |
| Csnk1g3 | 6 | 71.2 | 102 |
| Defb29 | 1 | 99.7 | 90.7 |
| Defb29 | 2 | 80.1 | 96.1 |
| Defb29 | 3 | 88.7 | 88.7 |
| Or8b57 | 1 | 75.2 | 58.4 |
| Or8b57 | 2 | 48.3 | 34.5 |
| Or8b57 | 3 | 66.4 | 64.4 |
| Tspan13 | 1 | 62.9 | 88.5 |
| Tspan13 | 2 | 56 | 61.4 |
| Tspan13 | 3 | 43.3 | 90 |
| Rpl36 | 1 | 45.3 | 55.5 |
| Rpl36 | 2 | 53.1 | 41.5 |
| Rpl36 | 3 | 84.6 | 68.1 |

Reagents listed above with an active call, once more:
| Gene | reagent | GFP, % of control | viability (ATP), % of control |
| --- | --- | --- | --- |
| Bst2 | 3 | 163 (active) | 148 |
| Wac | 2 | 124 (active) | 49.9 |
| Drg1 | 1 | 133 (active) | 124 |
| Drg1 | 2 | 121 (active) | 120 |
| L3mbtl4 | 1 | 159 (active) | 121 |
| Csnk1g3 | 1 | 120 (active) | 87.4 |
| Csnk1g3 | 2 | 135 (active) | 96.5 |
